Data published in article PMC7073468, “Small RNA‐binding protein RapZ mediates cell envelope precursor sensing and signaling in Escherichia coli” (The EMBO Journal, 2020).
No constants are given. Whether binding was seen depends on the method and setting. Binding can be weak; no strength is given. Where a sequence is shown, tags or fusion partners need not be part of it.

B1: QseE, BACTH fusion (T18 or T25) (protein, UniProt P52101 1-475)
chain: MKRWPVFPRSLRQLVMLAFLLILLPLLVLAWQAWQSLNALSDQAALVNRTTLIDARRSEAMTNAALEMERSYRQYCVLDDPTLAKVYQSQRKRYSEMLDAHAGVLPDDKLYQALRQDLHNLAQLQCNNSGPDAAAAARLEAFASANTEMVQATRTVVFSRGQQLQREIAERGQYFGWQSLVLFLVSLVMVLLFTRMIIGPVKNIERMINRLGEGRSLGNSVSFSGPSELRSVGQRILWLSERLSWLESQRHQFLRHLSHELKTPLASMREGTELLADQVVGPLTPEQKEVVSILDSSSRNLQKLIEQLLDYNRKQADSAVELENVELAPLVETVVSAHSLPARAKMMHTDVDLKATACLAEPMLLMSVLDNLYSNAVHYGAESGNICLRSSLHGARVYIDVINTGTPIPQEERAMIFEPFFQGSHQRKGAVKGSGLGLSIARDCIRRMQGELYLVDESGQDVCFRIELPSSKNTK
B2: QseF, BACTH fusion (T18 or T25) (protein, UniProt P0AFU4 1-444)
chain: MSHKPAHLLLVDDDPGLLKLLGLRLTSEGYSVVTAESGAEGLRVLNREKVDLVISDLRMDEMDGMQLFAEIQKVQPGMPVIILTAHGSIPDAVAATQQGVFSFLTKPVDKDALYQAIDDALEQSAPATDERWREAIVTRSPLMLRLLEQARLVAQSDVSVLINGQSGTGKEIFAQAIHNASPRNSKPFIAINCGALPEQLLESELFGHARGAFTGAVSNREGLFQAAEGGTLFLDEIGDMPAPLQVKLLRVLQERKVRPLGSNRDIDINVRIISATHRDLPKAMARGEFREDLYYRLNVVSLKIPALAERTEDIPLLANHLLRQAAERHKPFVRAFSTDAMKRLMTASWPGNVRQLVNVIEQCVALTSSPVISDALVEQALEGENTALPTFVEARNQFELNYLRKLLQITKGNVTHAARMAGRNRTEFYKLLSRHELDANDFKE

Biological target: RapZ-CTD (C-terminal globular domain of RapZ), BACTH fusion (Escherichia coli)
Assay: two-hybrid; bacterial adenylate cyclase-based two-hybrid (BACTH); T18 and T25 fusions from pUT18C and pKT25 derivatives in E. coli reporter strain RH785 (MG1655::cyaA derivative) or BTH101, also in a derivative lacking the endogenous qseEGF operon; grown at 28°C with 1 mM IPTG to stationary phase; read-out β-galactosidase activity

Row | Binder | binding
1 | B1 | binds weakly
2 | B2 | binds weakly
